# Results taken from paper PMC7862700.
# The entries are a selection whose mix differs from that of the whole data set. At the low end of the ranking the order means little.
# Molecular target: SPI1 (UniProt P17947)
# Experiment: DAPPL (digital affinity profiling via proximity ligation, sequencing)
# Conditions: 10 mM Tris-HCl pH 7.5, 50 mM NaCl, 1 mM DTT, 4% glycerol, room temperature, 30 min; GST-TFs on glutathione beads, 16-mer random dsDNA library, 0.1% …; high values mean tight binding; double strand, one strand shown; scale: fold enrichment (6-mer frequency, TF over GST control)
row,Sequence,binding signal
1,CCAAGG,0.93
2,GACGCA,0.5
3,CGCAGC,0.77
4,ATGAGT,0.673
5,CGCAGG,0.888
6,GGACTA,0.767
7,AGTAGA,0.844
8,GTGAAG,0.675
9,TCGGGT,0.622
10,GAGATC,0.429
11,CTAGAG,0.85
12,AACCAG,0.795
13,ACAGGC,0.673
14,CTGTCG,0.546
15,CCTAGT,0.902
16,GCATGT,0.708
17,CAGGAG,0.23
18,CGTGAT,0.439
19,GTACCG,0.748
20,ACCGTG,0.23

# Reprinted at random: 3 entries already listed.
row,Sequence,binding signal
1,CCAAGG,0.93
20,ACCGTG,0.23
17,CAGGAG,0.23

# Next part

row,Sequence,binding signal
1,ATTGGA,0.88
2,AGACCG,0.489
3,CAAAGG,0.816
4,GAGGGA,0.512
5,TGACGT,0.977
6,GGCGAG,0.509
7,TAGTCG,0.485
8,GCATAG,0.816
9,AGAGTC,0.403
10,GGCGGG,0.336
11,GAGACG,0.321
12,GGCAGT,0.48
13,GCGGGC,0.752
14,GCAGTA,0.841
15,TGAGCG,0.58
16,CAGGGG,0.519
17,GCACCA,0.792
18,CGTGTG,0.413
19,CCCGTG,0.527
20,GCGGTG,0.533
